The supplement of paper PMC10849652
This is one part of the list.

The chains behind the UniProt entries cited, without tags or fusion partners. Where a name states a change or a piece, a line headed by the entry shows the natural chain unless it says otherwise.
UniProt P04818: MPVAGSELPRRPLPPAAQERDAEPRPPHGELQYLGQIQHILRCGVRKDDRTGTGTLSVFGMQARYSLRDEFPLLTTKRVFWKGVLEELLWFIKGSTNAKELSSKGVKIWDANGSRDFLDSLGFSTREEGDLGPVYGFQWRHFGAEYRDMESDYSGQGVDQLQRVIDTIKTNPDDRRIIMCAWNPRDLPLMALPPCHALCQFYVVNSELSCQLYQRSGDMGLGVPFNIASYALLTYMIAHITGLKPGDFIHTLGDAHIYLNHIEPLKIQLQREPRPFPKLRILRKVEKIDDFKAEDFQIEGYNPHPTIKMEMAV
UniProt Q9C0C9: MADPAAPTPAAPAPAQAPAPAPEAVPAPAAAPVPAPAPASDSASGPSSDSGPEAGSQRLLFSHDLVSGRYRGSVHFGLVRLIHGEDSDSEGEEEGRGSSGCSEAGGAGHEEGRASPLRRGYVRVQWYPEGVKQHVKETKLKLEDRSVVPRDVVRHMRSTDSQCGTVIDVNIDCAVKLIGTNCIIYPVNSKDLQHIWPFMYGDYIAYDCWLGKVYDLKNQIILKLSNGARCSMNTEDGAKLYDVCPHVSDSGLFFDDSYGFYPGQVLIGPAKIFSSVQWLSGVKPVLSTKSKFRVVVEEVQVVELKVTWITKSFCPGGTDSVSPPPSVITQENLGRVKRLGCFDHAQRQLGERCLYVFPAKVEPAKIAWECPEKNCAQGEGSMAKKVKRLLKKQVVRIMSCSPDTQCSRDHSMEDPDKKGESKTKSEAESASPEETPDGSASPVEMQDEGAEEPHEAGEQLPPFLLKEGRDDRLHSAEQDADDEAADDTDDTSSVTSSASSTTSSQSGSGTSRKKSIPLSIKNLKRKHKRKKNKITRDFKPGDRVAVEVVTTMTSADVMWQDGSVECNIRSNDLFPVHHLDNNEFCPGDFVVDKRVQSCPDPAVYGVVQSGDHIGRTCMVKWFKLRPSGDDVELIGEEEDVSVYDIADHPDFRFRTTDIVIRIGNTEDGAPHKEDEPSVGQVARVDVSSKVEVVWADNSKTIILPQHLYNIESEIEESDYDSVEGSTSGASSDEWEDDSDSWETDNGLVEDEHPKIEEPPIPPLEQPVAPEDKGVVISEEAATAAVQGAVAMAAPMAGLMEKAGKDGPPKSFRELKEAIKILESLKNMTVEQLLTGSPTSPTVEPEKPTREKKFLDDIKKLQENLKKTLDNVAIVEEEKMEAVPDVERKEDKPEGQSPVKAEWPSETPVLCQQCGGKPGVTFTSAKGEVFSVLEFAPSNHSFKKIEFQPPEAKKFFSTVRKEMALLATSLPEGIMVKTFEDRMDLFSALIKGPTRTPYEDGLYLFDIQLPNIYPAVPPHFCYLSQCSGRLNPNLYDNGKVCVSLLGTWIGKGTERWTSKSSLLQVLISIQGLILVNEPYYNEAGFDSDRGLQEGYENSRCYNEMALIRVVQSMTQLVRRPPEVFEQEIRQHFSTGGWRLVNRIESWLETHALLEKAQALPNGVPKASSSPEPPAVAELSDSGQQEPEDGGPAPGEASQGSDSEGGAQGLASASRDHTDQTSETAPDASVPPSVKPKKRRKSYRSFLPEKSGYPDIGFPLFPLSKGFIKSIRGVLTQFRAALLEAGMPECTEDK
UniProt Q6IBS0: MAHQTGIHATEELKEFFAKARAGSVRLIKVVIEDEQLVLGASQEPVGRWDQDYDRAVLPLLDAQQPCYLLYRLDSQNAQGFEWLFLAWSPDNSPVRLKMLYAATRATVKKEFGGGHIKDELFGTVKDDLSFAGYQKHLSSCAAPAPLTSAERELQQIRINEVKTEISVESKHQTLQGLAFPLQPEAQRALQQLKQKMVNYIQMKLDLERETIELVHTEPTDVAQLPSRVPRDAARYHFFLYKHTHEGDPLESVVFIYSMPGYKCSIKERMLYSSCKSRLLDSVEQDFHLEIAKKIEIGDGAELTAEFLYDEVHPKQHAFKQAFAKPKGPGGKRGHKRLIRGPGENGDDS
UniProt Q9BQE3, whole entry, looked up: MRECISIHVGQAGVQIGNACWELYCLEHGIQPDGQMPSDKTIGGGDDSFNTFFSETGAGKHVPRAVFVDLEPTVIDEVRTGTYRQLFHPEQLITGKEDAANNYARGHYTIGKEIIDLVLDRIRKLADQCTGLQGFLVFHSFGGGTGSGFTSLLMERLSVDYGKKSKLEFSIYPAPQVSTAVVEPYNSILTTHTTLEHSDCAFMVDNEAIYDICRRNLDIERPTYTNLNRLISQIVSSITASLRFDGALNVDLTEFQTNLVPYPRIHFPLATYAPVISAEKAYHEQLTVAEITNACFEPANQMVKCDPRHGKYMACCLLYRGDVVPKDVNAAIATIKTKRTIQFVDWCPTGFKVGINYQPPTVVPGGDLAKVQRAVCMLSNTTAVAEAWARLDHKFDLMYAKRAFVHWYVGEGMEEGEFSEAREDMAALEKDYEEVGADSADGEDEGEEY
UniProt Q9NPD8: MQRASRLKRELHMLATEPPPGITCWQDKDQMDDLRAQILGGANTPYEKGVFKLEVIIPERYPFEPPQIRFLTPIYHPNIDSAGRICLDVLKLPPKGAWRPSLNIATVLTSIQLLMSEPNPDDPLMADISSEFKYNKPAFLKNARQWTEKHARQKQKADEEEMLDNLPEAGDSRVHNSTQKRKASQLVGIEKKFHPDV
UniProt P61086: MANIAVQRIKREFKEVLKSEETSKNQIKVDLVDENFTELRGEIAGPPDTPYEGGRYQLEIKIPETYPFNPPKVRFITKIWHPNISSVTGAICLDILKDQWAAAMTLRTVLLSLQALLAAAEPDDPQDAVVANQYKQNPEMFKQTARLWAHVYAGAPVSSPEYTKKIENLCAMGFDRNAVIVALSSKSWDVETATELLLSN
UniProt Q9BSJ2, whole entry, looked up: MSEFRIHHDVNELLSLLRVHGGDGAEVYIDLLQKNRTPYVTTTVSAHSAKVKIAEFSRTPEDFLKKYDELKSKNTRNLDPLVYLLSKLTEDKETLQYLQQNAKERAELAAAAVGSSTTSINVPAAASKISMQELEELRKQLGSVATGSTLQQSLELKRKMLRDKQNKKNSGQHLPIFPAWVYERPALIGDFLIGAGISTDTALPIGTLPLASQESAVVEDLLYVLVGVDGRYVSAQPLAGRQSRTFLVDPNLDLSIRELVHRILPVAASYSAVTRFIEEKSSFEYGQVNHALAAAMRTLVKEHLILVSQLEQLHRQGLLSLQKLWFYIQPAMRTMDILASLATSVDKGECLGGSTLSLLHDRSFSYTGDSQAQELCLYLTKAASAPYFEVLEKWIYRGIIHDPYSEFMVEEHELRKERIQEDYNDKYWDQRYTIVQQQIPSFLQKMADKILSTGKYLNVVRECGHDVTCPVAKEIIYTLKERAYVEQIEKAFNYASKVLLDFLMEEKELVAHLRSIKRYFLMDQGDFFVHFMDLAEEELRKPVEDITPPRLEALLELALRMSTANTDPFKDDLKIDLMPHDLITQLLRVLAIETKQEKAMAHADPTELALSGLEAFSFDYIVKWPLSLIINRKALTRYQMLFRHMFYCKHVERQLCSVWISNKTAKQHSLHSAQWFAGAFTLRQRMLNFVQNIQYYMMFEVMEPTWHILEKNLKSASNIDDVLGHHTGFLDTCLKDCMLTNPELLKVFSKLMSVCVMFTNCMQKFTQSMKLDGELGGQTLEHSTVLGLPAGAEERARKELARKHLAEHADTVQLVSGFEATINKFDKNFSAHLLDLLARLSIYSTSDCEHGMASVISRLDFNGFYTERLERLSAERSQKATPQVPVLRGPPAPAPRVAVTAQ
UniProt P30536, whole entry, looked up: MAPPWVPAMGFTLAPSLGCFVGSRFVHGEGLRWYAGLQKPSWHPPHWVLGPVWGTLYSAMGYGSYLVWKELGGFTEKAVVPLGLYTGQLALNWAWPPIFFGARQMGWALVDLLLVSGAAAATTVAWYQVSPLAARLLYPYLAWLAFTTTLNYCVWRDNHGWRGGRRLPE
UniProt P63279, whole entry, looked up: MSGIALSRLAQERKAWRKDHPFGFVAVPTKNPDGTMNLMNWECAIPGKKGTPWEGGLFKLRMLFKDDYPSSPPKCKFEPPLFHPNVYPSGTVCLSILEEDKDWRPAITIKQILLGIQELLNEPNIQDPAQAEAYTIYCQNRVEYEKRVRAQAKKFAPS
UniProt P61088: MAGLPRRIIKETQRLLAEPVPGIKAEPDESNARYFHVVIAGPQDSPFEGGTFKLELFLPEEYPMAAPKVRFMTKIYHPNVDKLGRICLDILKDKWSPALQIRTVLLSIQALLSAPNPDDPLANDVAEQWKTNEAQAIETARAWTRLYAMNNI
UniProt P62256: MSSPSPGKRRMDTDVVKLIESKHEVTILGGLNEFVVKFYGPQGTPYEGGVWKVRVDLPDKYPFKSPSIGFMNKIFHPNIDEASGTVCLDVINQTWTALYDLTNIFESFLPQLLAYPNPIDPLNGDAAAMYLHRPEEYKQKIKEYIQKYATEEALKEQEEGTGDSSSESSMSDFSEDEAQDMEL
UniProt Q13885, whole entry, looked up: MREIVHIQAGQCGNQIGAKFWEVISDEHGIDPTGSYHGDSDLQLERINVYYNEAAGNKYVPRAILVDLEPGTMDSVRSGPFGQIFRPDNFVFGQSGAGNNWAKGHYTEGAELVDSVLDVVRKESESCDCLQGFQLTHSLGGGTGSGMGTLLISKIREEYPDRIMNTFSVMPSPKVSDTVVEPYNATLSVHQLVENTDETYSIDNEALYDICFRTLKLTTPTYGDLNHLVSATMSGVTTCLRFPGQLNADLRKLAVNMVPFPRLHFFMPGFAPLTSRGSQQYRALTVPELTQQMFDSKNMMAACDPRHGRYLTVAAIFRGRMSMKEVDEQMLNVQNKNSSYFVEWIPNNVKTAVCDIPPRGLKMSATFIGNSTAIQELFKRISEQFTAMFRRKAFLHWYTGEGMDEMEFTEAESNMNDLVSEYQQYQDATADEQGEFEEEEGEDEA
UniProt Q9UJT0: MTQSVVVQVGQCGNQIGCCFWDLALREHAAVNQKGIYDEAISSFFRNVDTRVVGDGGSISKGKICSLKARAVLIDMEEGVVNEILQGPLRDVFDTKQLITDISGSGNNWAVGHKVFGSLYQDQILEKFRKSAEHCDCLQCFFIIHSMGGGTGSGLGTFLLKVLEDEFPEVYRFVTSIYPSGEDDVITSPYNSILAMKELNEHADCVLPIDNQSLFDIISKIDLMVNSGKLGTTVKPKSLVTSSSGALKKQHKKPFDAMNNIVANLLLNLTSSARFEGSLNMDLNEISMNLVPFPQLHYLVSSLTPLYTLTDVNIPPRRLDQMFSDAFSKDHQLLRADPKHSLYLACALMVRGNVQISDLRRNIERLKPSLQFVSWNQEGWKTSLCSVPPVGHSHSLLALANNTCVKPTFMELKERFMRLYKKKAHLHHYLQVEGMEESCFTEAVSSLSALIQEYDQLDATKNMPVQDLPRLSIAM
UniProt O14530: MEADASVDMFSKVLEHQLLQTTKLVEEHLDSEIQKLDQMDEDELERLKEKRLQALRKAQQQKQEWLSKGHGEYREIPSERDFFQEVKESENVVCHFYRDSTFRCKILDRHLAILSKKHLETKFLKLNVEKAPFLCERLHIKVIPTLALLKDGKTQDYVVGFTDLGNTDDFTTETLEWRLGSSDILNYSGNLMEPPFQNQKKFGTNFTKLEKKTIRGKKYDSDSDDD
UniProt P68363, whole entry, looked up: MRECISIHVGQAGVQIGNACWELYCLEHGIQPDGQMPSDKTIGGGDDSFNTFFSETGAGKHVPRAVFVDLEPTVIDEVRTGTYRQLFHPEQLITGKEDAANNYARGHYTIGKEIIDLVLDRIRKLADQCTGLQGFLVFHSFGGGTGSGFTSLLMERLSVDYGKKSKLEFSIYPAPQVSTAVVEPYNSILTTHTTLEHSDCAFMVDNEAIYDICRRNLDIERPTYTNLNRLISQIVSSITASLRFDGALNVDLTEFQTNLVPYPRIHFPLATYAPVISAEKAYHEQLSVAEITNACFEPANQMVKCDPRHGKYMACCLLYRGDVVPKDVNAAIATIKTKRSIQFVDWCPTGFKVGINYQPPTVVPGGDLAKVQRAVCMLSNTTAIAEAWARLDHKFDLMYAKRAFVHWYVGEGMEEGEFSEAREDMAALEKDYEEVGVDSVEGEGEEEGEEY

How the values were obtained:
Test in all cases: log2 fold change, soluble protein after heating vs DMSO (PISA); higher = thermal stabilisation; K562 cells, 10 uM, 30 min; active = over 0.2 and 3.5 SD of the protein, either way, in both replicates (recomputed)
[1] = compound: CS(=O)(=O)c1ccc(-c2cnc(N)c(C(=O)Nc3ccccc3)n2)cc1
Procedure, shortened: (§1)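 Quantification of soluble protein used TMTpro 16plex LC-MS/MS, with channel sums equalised. Samples were the supernatant after 21,000xg for 90 min of pooled aliquots from K562 cells (2×10^6 cells/mL) treated with 10 μM compound for 30 min, heated for 3 min over 48°C-58°C, and extracted in PBS with 0.5% NP-40 at 4°C. Values, from duplicates, describe thermal stability against control samples on a log2 fold-change scale.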

crizotinib = compound: C[C@@H](Oc1cc(-c2cnn(C3CCNCC3)c2)cnc1N)c1c(Cl)ccc(F)c1Cl [crizotinib]
Procedure, shortened: as §1

[2] = compound: C[C@@H]1COCCN1C2=NC(=NC(=C2)C3(CC3)S(=O)(=O)C)C4=C5C=CNC5=CC=C4
Procedure, shortened: as §1

[3] = compound: C[C@H](C1=CC=C(C=C1)C(=O)NC2=C3C=CNC3=NC=C2)N
Procedure, shortened: as §1

duvelisib = compound: C[C@H](Nc1ncnc2nc[nH]c12)c1cc2cccc(Cl)c2c(=O)n1-c1ccccc1 [duvelisib]
Procedure, shortened: as §1

gandotinib = compound: Cc1cc(Nc2cc(CN3CCOCC3)c3nc(C)c(Cc4ccc(Cl)cc4F)n3n2)n[nH]1 [gandotinib]
Procedure, shortened: as §1

tozasertib = compound: Cc1cc(Nc2cc(N3CCN(C)CC3)nc(Sc3ccc(NC(=O)C4CC4)cc3)n2)n[nH]1 [tozasertib]
Procedure, shortened: as §1

[4] = compound: Cc1cc(SCc2sc(-c3ccc(C(F)(F)F)cc3)nc2C)ccc1OCC(=O)O
Procedure, shortened: as §1

doramapimod = compound: Cc1ccc(-n2nc(C(C)(C)C)cc2NC(=O)Nc2ccc(OCCN3CCOCC3)c3ccccc23)cc1 [doramapimod]
Procedure, shortened: as §1

ispinesib = compound: Cc1ccc(C(=O)N(CCCN)[C@@H](c2nc3cc(Cl)ccc3c(=O)n2Cc2ccccc2)C(C)C)cc1 [ispinesib]
Procedure, shortened: as §1

bafetinib = compound: Cc1ccc(NC(=O)c2ccc(CN3CC[C@H](N(C)C)C3)c(C(F)(F)F)c2)cc1Nc1nccc(-c2cncnc2)n1 [bafetinib]
Procedure, shortened: as §1

[5] = compound: Cc1cccc(CC(=O)N2CCc3c2ccc(-c2cn(C)c4ncnc(N)c24)c3F)n1
Procedure, shortened: as §1

nilotinib = compound: Cc1cn(-c2cc(NC(=O)c3ccc(C)c(Nc4nccc(-c5cccnc5)n4)c3)cc(C(F)(F)F)c2)cn1 [nilotinib]
Procedure, shortened: as §1

[6] = compound: Cc1nc(Nc2n[nH]c3c2CN(C(=O)N[C@H](CN(C)C)c2ccccc2)C3(C)C)c2sccc2n1
Procedure, shortened: as §1

dasatinib = compound: Cc1nc(Nc2ncc(C(=O)Nc3c(C)cccc3Cl)s2)cc(N2CCN(CCO)CC2)n1 [dasatinib]
Procedure, shortened: as §1

[7] = compound: Cc1ncc(-c2ccnc(Nc3ccc(S(C)(=O)=O)cc3)n2)n1C(C)C
Procedure, shortened: as §1

[8] = compound: Cn1cc(-c2ccc3c(c2)CCN3C(=O)Cc2cccc(C(F)(F)F)c2)c2c(N)ncnc21
Procedure, shortened: as §1

[9] = compound: Cn1cc(-c2ccc3nnc(C(F)(F)c4ccc5ncccc5c4)n3n2)cn1
Procedure, shortened: as §1

tipifarnib = compound: Cn1cncc1[C@@](N)(c1ccc(Cl)cc1)c1ccc2c(c1)c(-c1cccc(Cl)c1)cc(=O)n2C [tipifarnib]
Procedure, shortened: as §1

mubritinib = compound: FC(F)(F)c1ccc(/C=C/c2nc(COc3ccc(CCCCn4ccnn4)cc3)co2)cc1 [mubritinib]
Procedure, shortened: as §1

Measured: log2 fold change

TYMS (UniProt P04818)
inactive: [1] 0.034 | crizotinib -0.035 | [2] -0.003 | [3] -0.016 | duvelisib 0.012 | gandotinib 0.127 | tozasertib 0.027 | [4] 0.021 | doramapimod -0.005 | ispinesib 0.01 | bafetinib 0 | [5] 0.021 | nilotinib -0.042 | [6] -0.076 | dasatinib -0.033 | [7] -0.016 | [8] 0.073 | [9] -0.005 | tipifarnib -0.05 | mubritinib 0.115

UBE2O (UniProt Q9C0C9)
inactive: [1] 0.041 | crizotinib -0.039 | [2] -0.016 | [3] -0.004 | duvelisib 0.034 | gandotinib -0.061 | tozasertib -0.006 | [4] 0.021 | doramapimod 0.021 | ispinesib -0.031 | bafetinib 0.009 | [5] 0.014 | nilotinib -0.015 | [6] 0.002 | dasatinib -0.05 | [7] -0.031 | [8] 0.078 | [9] 0.031 | tipifarnib -0.045 | mubritinib 0.109

TWF2 (UniProt Q6IBS0)
inactive: [1] 0.021 | crizotinib -0.032 | [2] 0.047 | [3] -0.059 | duvelisib -0.004 | gandotinib -0.069 | tozasertib 0.015 | [4] -0.013 | doramapimod 0.008 | ispinesib 0.136 | bafetinib 0.025 | [5] 0.113 | nilotinib 0.026 | [6] -0.047 | dasatinib 0.01 | [7] 0.037 | [8] 0.082 | [9] 0.062 | tipifarnib -0.057 | mubritinib 0.174

TTC17 (UniProt Q96AE7)
inactive: [1] 0.011 | crizotinib 0.067 | [2] -0.003 | [3] 0.037 | duvelisib -0.019 | gandotinib 0.265 | tozasertib -0.038 | [4] -0.048 | doramapimod 0.046 | ispinesib 0.03 | bafetinib -0.04 | [5] 0.039 | nilotinib 0.03 | [6] 0.134 | dasatinib 0.038 | [7] -0.028 | [8] -0.052 | [9] 0.015 | tipifarnib 0.155 | mubritinib 0.046

TUBA1C (UniProt Q9BQE3)
inactive: [1] 0.017 | crizotinib -0.089 | [2] 0.063 | [3] -0.007 | duvelisib 0.044 | gandotinib -0.016 | tozasertib -0.057 | [4] 0.038 | doramapimod 0.025 | ispinesib 0.047 | bafetinib -0.03 | [5] 0.005 | nilotinib 0.043 | [6] 0.005 | dasatinib -0.088 | [7] -0.024 | [8] 0.069 | [9] 0.028 | tipifarnib -0.015 | mubritinib 0.025

UBE2T (UniProt Q9NPD8)
inactive: [1] -0.009 | crizotinib 0.046 | [2] 0.082 | [3] -0.004 | duvelisib 0.063 | gandotinib -0.04 | tozasertib -0.006 | [4] 0.016 | doramapimod -0.007 | ispinesib -0.01 | bafetinib -0.007 | [5] 0.039 | nilotinib -0.071 | [6] 0.008 | dasatinib -0.05 | [7] -0.023 | [8] 0.025 | [9] 0 | tipifarnib -0.107 | mubritinib 0.038

UBE2K (UniProt P61086)
inactive: [1] 0.013 | crizotinib 0.005 | [2] 0.044 | [3] -0.127 | duvelisib 0.001 | gandotinib 0.021 | tozasertib 0.035 | [4] -0.027 | doramapimod -0.015 | ispinesib 0.129 | bafetinib 0.057 | [5] -0.015 | nilotinib 0.006 | [6] -0.055 | dasatinib -0.011 | [7] -0.01 | [8] 0.02 | [9] -0.04 | tipifarnib -0.064 | mubritinib 0.038

TUBGCP2 isoform 4 (UniProt Q9BSJ2)
inactive: [1] 0.034 | crizotinib -0.103 | [2] -0.062 | [3] 0.327 | duvelisib -0.068 | gandotinib 0.098 | tozasertib -0.043 | [4] 0.136 | doramapimod 0.15 | ispinesib -0.342 | bafetinib -0.137 | [5] 0.046 | nilotinib -0.015 | [6] -0.242 | dasatinib -0.198 | [7] 0.003 | [8] -0.035 | [9] -0.184 | tipifarnib 0.043 | mubritinib 0.095

TSPO (UniProt P30536)
inactive: [1] -0.003 | crizotinib 0.066 | [2] 0.142 | [3] -0.034 | duvelisib 0.109 | gandotinib -0.046 | tozasertib 0.003 | [4] -0.077 | doramapimod 0.007 | ispinesib 0.034 | bafetinib -0.038 | [5] -0.075 | nilotinib -0.02 | [6] -0.01 | dasatinib -0.008 | [7] -0.012 | [8] 0.045 | [9] 0.068 | tipifarnib 0.083 | mubritinib 0.003

UBE2I (UniProt P63279)
inactive: [1] 0.026 | crizotinib 0.005 | [2] 0.092 | [3] -0.08 | duvelisib 0.033 | gandotinib -0.009 | tozasertib -0.014 | [4] 0.027 | doramapimod -0.067 | ispinesib 0.051 | bafetinib -0.049 | [5] 0.059 | nilotinib 0.001 | [6] -0.043 | dasatinib -0.023 | [7] -0.02 | [8] 0.072 | [9] 0.065 | tipifarnib 0 | mubritinib 0.06

UBE2N (UniProt P61088)
inactive: [1] 0.042 | crizotinib 0.168 | [2] 0.129 | [3] -0.062 | duvelisib 0.062 | gandotinib -0.056 | tozasertib 0.057 | [4] 0.017 | doramapimod -0.119 | ispinesib 0.126 | bafetinib 0 | [5] -0.033 | nilotinib -0.024 | [6] 0.025 | dasatinib -0.011 | [7] -0.029 | [8] 0.121 | [9] 0.015 | tipifarnib -0.103 | mubritinib -0.024

2 successive records out of the list so far, for reference:
UBE2K (UniProt P61086)
inactive: [1] 0.013 | crizotinib 0.005 | [2] 0.044 | [3] -0.127 | duvelisib 0.001 | gandotinib 0.021 | tozasertib 0.035 | [4] -0.027 | doramapimod -0.015 | ispinesib 0.129 | bafetinib 0.057 | [5] -0.015 | nilotinib 0.006 | [6] -0.055 | dasatinib -0.011 | [7] -0.01 | [8] 0.02 | [9] -0.04 | tipifarnib -0.064 | mubritinib 0.038

TUBGCP2 isoform 4 (UniProt Q9BSJ2)
inactive: [1] 0.034 | crizotinib -0.103 | [2] -0.062 | [3] 0.327 | duvelisib -0.068 | gandotinib 0.098 | tozasertib -0.043 | [4] 0.136 | doramapimod 0.15 | ispinesib -0.342 | bafetinib -0.137 | [5] 0.046 | nilotinib -0.015 | [6] -0.242 | dasatinib -0.198 | [7] 0.003 | [8] -0.035 | [9] -0.184 | tipifarnib 0.043 | mubritinib 0.095

Further results follow:

UBE2H (UniProt P62256)
inactive: [1] -0.028 | crizotinib 0.024 | [2] 0.005 | [3] -0.032 | duvelisib 0.017 | gandotinib -0.091 | tozasertib 0.023 | [4] -0.009 | doramapimod -0.044 | ispinesib 0.044 | bafetinib -0.099 | [5] 0.044 | nilotinib -0.006 | [6] -0.034 | dasatinib -0.001 | [7] -0.014 | [8] 0.004 | [9] 0.05 | tipifarnib -0.013 | mubritinib 0.022

TUBB2A (UniProt Q13885)
inactive: [1] 0.035 | crizotinib -0.139 | [2] 0.078 | [3] 0.059 | duvelisib 0.04 | gandotinib -0.029 | tozasertib -0.06 | [4] -0.012 | doramapimod 0.001 | ispinesib -0.034 | bafetinib -0.002 | [5] 0.003 | nilotinib 0 | [6] 0.013 | dasatinib -0.015 | [7] -0.03 | [8] -0.006 | [9] 0 | tipifarnib -0.006 | mubritinib 0.016

TUBE1 (UniProt Q9UJT0)
inactive: [1] 0.003 | crizotinib 0.019 | [2] -0.085 | [3] -0.047 | duvelisib 0.045 | gandotinib 0.032 | tozasertib -0.076 | [4] -0.005 | doramapimod -0.01 | ispinesib 0.006 | bafetinib 0.017 | [5] -0.069 | nilotinib 0.097 | [6] -0.07 | dasatinib 0.022 | [7] -0.012 | [8] 0.019 | [9] -0.08 | tipifarnib 0.025 | mubritinib 0.012

TXNDC9 (UniProt O14530)
inactive: [1] 0.021 | crizotinib -0.027 | [2] 0.025 | [3] -0.011 | duvelisib 0.028 | gandotinib -0.018 | tozasertib 0.031 | [4] 0.04 | doramapimod 0.034 | ispinesib -0.003 | bafetinib 0.04 | [5] 0.042 | nilotinib 0.033 | [6] 0.007 | dasatinib 0.007 | [7] -0.051 | [8] 0.029 | [9] 0 | tipifarnib 0.035 | mubritinib 0.043

TUBA1B (UniProt P68363)
inactive: [1] 0.015 | crizotinib -0.171 | [2] 0.058 | [3] -0.025 | duvelisib 0.036 | gandotinib -0.03 | tozasertib -0.067 | [4] -0.006 | doramapimod 0.003 | ispinesib -0.005 | bafetinib 0.001 | [5] 0.024 | nilotinib -0.018 | [6] 0.019 | dasatinib -0.049 | [7] -0.049 | [8] 0.05 | [9] 0.049 | tipifarnib -0.001 | mubritinib 0.052
